Laboratory results as given in PubChem BioAssay AID1347076 (National Center for Advancing Translational Sciences (NCATS), 2019).
In all, about 400,000 compounds went through this assay and about 13,000 (3.2%) were called active. Inconclusive means that the source gave no clear call. Such entries were picked first, then a sample of the others. Calls follow the shape of the dose curve; as a rule, active = well fitted cell-killing curve with a large enough effect; inconclusive = small, poorly fitted or top-dose-only effect, or effect the other way; inactive = flat fitted curve, though single readings scatter. Potencies of inconclusive entries are doubtful fits and often do not repeat.

test: qHTS assay for MDR1-selective chemotherapeutics: Primary screen using the drug-selected MDR subline cells KB-V1; details: KB-V1 MDR cells viability, CellTiter-Glo, 72 h; activity change, negative = cytotoxicity: at 46.1 µM (top of the series); also: nearly all actives have a fitted effect of over 60% in size
Summary of the method: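 Compound-treated KB-V1 multidrug-resistant cells, 72 h, 37 degrees C; viability by CellTiter-Glo. Fitted qHTS curves give the values.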
% is scaled to controls: 0 for no effect and ±100 for the full control effect; potency is read from the fitted curve at half-maximal effect.

Row | Compound | activity change, negative = cytotoxicity | Potency
1 | C[C@]12c3[nH]c4ccc(Cl)cc4c3CCN1C(=O)[C@@H](CC(=O)NCC13CC4CC(CC(C4)C1)C3)C[C@@H]2C(=O)N1CCCCC1 | inactive: 0.0002% | 
2 | Cc1cc(C)cc(NC(=O)c2oc3ccccc3c2COc2ccccc2)c1 |  | inconclusive: 20.6 µM [cytotoxic, single point]
3 | O=C(CN1C(=O)c2cccc3cccc(c23)C1=O)N1CCCCC1 |  | inconclusive: 13 µM [cytotoxic, partial curve]
4 | CNCC(C)COc1ccccc1OCc1ccccc1 (stereo unspecified) |  | active: 20.6 µM
5 | Cc1cccc(CNC(=O)C2CCN(c3nn4cc(-c5ccc(F)cc5)nc4s3)CC2)c1 | inactive: 6.45% | 
6 | O=C(C1CCN(S(=O)(=O)c2ccc(Cl)cc2)CC1)N1CCCC1 | inactive: -8.21% | 
7 | COc1cccc(NC(=O)Cn2c(SCC(=O)N3CCOCC3)nc3ccccc32)c1 |  | inconclusive: 25.9 µM [cytotoxic, single point]
8 | COc1ccc(Nc2nc(N)nc(CSC(=S)N3CCOCC3)n2)cc1 | inactive: -14.9% | 
9 | NC(N)=NCCCc1cn(CC(=O)N2CCNCC2)nn1 |  | inconclusive: 6.51 µM [rising, partial curve, poor fit]
10 | Cc1nc2ccccc2c2oc(C(=O)Nc3ccc(C(C)C)cc3)cc12 | inactive: -23.1% | 
11 | CC(=O)Nc1ccc(N=c2cc([N+](=O)[O-])cc(Cl)n2O)cc1 |  | inconclusive: 29.1 µM [cytotoxic, single point]
12 | O=C1OCC(CO)(CO)N=C1NNc1ccccc1Cl | inactive: -1.25% | 
13 | N=c1ccn(Cc2cccc(Cl)c2)cc1 |  | inconclusive: 29.1 µM [rising, single point]
14 | COc1ccc(N2CC(C(=O)Nc3nnc(C4CCCCC4)s3)CC2=O)cc1 (stereo unspecified) |  | inconclusive: 29.1 µM [cytotoxic, partial curve, poor fit]
15 | C=CCn1c(CCNC(=O)c2cccs2)nnc1SCC(=O)Nc1cccc(C(C)=O)c1 |  | inconclusive: 16.4 µM [rising, partial curve, poor fit]
16 | COC(=O)[C@]12CCCCC=C1N(CCc1ccc(OC)c(OC)c1)C(=O)[C@H](CC(=O)NCCCCc1ccccc1)C2 |  | inconclusive: 8.2 µM [cytotoxic, partial curve, poor fit]
17 | Cc1cccc(N=Nc2c(N)n[nH]c2N)c1 |  | inconclusive: 20.6 µM [rising, single point]
18 | O=C(Cc1ccc(Cl)cc1)NC1CC(=O)N(c2ccc3c(c2)OCCO3)C1 (stereo unspecified) | inactive: -9.84% | 
19 | Cc1ccc(NN2C(=O)C=C(c3ccc(Cl)cc3)C2=O)cc1 |  | active: 11.6 µM
20 | COCCNC(=O)c1ccc(Cn2c(SCC(N)=O)nc3ccccc3c2=O)cc1 |  | inconclusive: 29.1 µM [rising, single point]
21 | COc1ccc(N2CCN(C(=O)Cc3csc(NC(=O)Nc4ccccc4OC)n3)CC2)cc1 |  | inconclusive: 18.4 µM [cytotoxic, single point]
22 | CCOc1ccc(NC(=O)N(CC(C)C)CC(C)C)cc1 |  | inconclusive: 14.6 µM [cytotoxic, partial curve, poor fit]
23 | Cc1cccc(OCCNC(=O)c2cncc(Br)c2)c1 | inactive: -9.79% | 
24 | CC(NC(=O)c1ccc(N(C)C)cc1)c1ccc(F)cc1 (stereo unspecified) |  | inconclusive: 29.1 µM [rising, single point]
25 | Cc1cc(=O)n2nc(N3CCC(C(=O)Nc4ccc(Br)c(C)c4)CC3)sc2n1 | inactive: 27.7% | 
26 | COc1cccc(C(=O)Nn2cnnc2)c1 |  | inconclusive: 29.1 µM [rising, single point]

Row | Compound | activity change, negative = cytotoxicity | Potency
27 | O=C(COC(=O)c1cccc(O)c1)Nc1ccc(OC(F)F)cc1 | inactive: -2.96% | 
28 | O=C(CCSCc1ccccc1F)N1CCN(c2ccccn2)CC1 | inconclusive: -41% [cytotoxic] | 
29 | CCN(CC)S(=O)(=O)c1ccc(/C=C/C(=O)Nc2ccc(F)c(F)c2F)cc1 |  | inconclusive: 2.31 µM [cytotoxic, full curve]
30 | CS(=O)(=O)N1CCN(c2ccccc2NC(=O)c2ccc3ccccc3c2)CC1 | inactive: -27.2% | 
31 | CCOC(=O)C1(CCc2ccccc2)CCN(C(=O)C(C)n2cncn2)CC1 (stereo unspecified) | inactive: -9.49% | 
32 | Cc1ccc(C(=O)NCCc2csc(-c3cccc(F)c3)n2)cc1C | inactive: 1.26% | 
33 | Cc1ccc(-c2[nH]ncc2CNC(C)c2ccccc2)cc1 (stereo unspecified) | inactive: 0% | 
34 | CCOC(=O)Cc1cc(=O)[nH]n(-c2ccccc2)c1=O | inactive: 0% | 
35 | Cc1cccc(Nc2nc(N3CCN(C)CC3)nc(N)c2[N+](=O)[O-])c1 |  | active: 7.31 µM
36 | COc1cc(NC(C)=O)c2ncccc2c1[N+](=O)[O-] |  | inconclusive: 13 µM [cytotoxic, partial curve]
37 | O=C(CN1C2CCCC1CC(NC(=O)C1CCCCC1)C2)NCc1ccc(F)cc1 (stereo unspecified) |  | inconclusive: 5.8 µM [cytotoxic, partial curve]
38 | Cc1ccc(Cl)cc1N1CCN(C(=O)CSc2ccsc2[N+](=O)[O-])CC1 |  | active: 5.17 µM
39 | O=c1c2ccc(Cl)cc2[nH]c(=S)n1Cc1cccnc1 |  | active: 18.4 µM
40 | C=C1CCC[C@]2(C)C[C@H]3OC(=O)C(CNC(C)CCCC(C)C)[C@H]3CC12 (stereo partly specified) |  | inconclusive: 23.1 µM [cytotoxic, partial curve, poor fit]
41 | Cc1ccc(C2Nc3cccc4cccc(c34)N2)s1 |  | inconclusive: 23.1 µM [cytotoxic, single point]
42 | Cc1cc(C)c2cc(CN(Cc3ccc4c(c3)OCO4)Cc3nnnn3Cc3ccco3)c(=O)[nH]c2c1 |  | inconclusive: 16.4 µM [cytotoxic, single point]
43 | Cc1nnc(NC(=O)c2nn(CC(C)C)c(=O)c3ccccc23)s1 |  | inconclusive: 11.6 µM [cytotoxic, partial curve, poor fit]
44 | COc1cccc(NC(=O)C(C)n2c(=O)cc(C(F)(F)F)c3c(C)nn(C)c32)c1 (stereo unspecified) | inactive: -17.2% | 
45 | CC(C)n1cnc2c(NCc3ccc(S(N)(=O)=O)cc3)nc(NCc3ccc(S(N)(=O)=O)cc3)nc21 | inactive: -3.55% | 
46 | O=C(NCc1cccc(Br)c1)C1CCCCN1S(=O)(=O)c1ccc(F)cc1 (stereo unspecified) | inactive: -9.2% | 
47 | C(=N\N1CCN(Cc2ccccc2)CC1)/c1cccs1 | inactive: -0.441% | 
48 | CCOc1ccc2nc(S(=O)(=O)NC(=O)C3(C)CCN3C(=O)c3c(C)noc3C)sc2c1 (stereo unspecified) | inactive: 1.92% | 
49 | Fc1ccccc1NC(=S)N(CCN1CCCCC1)Cc1ccco1 |  | inconclusive: 10.3 µM [cytotoxic, partial curve]
50 | C/C(=N\NC(=S)Nc1ccc(F)cc1)c1ccc2c(c1)OCCO2 |  | active: 11.6 µM
51 | CCC(C)N(C(=O)c1csnn1)C(C(=O)NCc1ccc(F)cc1)c1ccco1 (stereo unspecified) |  | active: 16.4 µM
52 | CCc1ccc(CNC(=O)CN2C(=O)C3CCCCN3c3ccc(C(=O)N4CCCC4)cc32)cc1 (stereo unspecified) | inactive: -2.4% | 

Entries of single compounds, quoted from the list:
CCOc1ccc2nc(S(=O)(=O)NC(=O)C3(C)CCN3C(=O)c3c(C)noc3C)sc2c1 (stereo unspecified) in the list: activity change, negative = cytotoxicity: inactive: 1.92%
Cc1ccc(-c2[nH]ncc2CNC(C)c2ccccc2)cc1 (stereo unspecified) in the list: activity change, negative = cytotoxicity: inactive: 0%
Cc1ccc(Cl)cc1N1CCN(C(=O)CSc2ccsc2[N+](=O)[O-])CC1 in the list: Potency: active: 5.17 µM

(list continues)

Row | Compound | activity change, negative = cytotoxicity | Potency
53 | CCC(C)Sc1nc2c(c(=O)[nH]c(=O)n2C)n1Cc1ccc(Cl)cc1 (stereo unspecified) |  | active: 9.2 µM
54 | COc1ccccc1NC(=O)C1CCCN(S(=O)(=O)c2ccc(-n3cnnn3)cc2)C1 (stereo unspecified) | inactive: 24% | 
55 | Cc1ccc(-c2csc(N3CCC(NS(=O)(=O)c4ccc5c(c4)OCCO5)CC3)n2)cc1 |  | inconclusive: 25.9 µM [cytotoxic, single point]
56 | C#CC1(O)CCC2C3CCC4=C(CCC(=O)C4)C3CCC21C (stereo unspecified) |  | active: 1.46 µM
57 | S=C(Nc1ccccc1)Nc1nc2ccccc2n1CCOc1ccccc1 |  | active: 14.6 µM
58 | COC(=O)/C=C/C(=O)Nc1cccnc1 | inactive: 3% | 
59 | CCn1cc(-c2nnnn2-c2ccc(Cl)cc2)c(=O)c2ccccc21 |  | inconclusive: 20.6 µM [cytotoxic, partial curve]
60 | Cc1cc(-c2cccc([N+](=O)[O-])c2)nc2ccc3ccccc3c12 |  | inconclusive: 9.2 µM [cytotoxic, partial curve, poor fit]
61 | O=C(Nc1ccccc1)c1sccc1Oc1ccc([N+](=O)[O-])cc1F | inactive: -16.2% | 
62 | Cc1cccc(-n2c(C)cc(/C=N\NC(=O)c3cccs3)c2C)c1 |  | inconclusive: 18.4 µM [cytotoxic, single point]
63 | COc1ccc(/C=C2\SC(=O)NC2=S)cc1OC | inactive: -6.47% | 
64 | CCN(CC)C(=O)Cn1c(SCC(=O)Nc2ccc(F)cc2)nc2ccccc21 | inactive: 0% | 
65 | COc1ccc(CCNC(=O)c2ccccc2SC)cc1 |  | inconclusive: 29.1 µM [cytotoxic, single point]
66 | CCn1c(/C=N/NC(=O)c2ccc(OC)cc2)nc2ccccc21 |  | inconclusive: 2.06 µM [cytotoxic, full curve]
67 | CCOc1ccc2nc(NC(=O)c3ccco3)sc2c1 |  | inconclusive: 18.4 µM [cytotoxic, single point]
68 | O=C(NC(=S)Nc1ccccc1N1CCCCC1)c1ccc(F)cc1Cl |  | inconclusive: 32.6 µM [cytotoxic, single point]
69 | O=C(Cc1c(F)cccc1Cl)N/N=C/c1cccnc1 |  | inconclusive: 29.1 µM [rising, single point]
70 | Cc1ccsc1C1NC(=O)c2c(sc3c2CCCC3)N1 (stereo unspecified) |  | active: 14.6 µM
71 | O=C(COc1nsnc1N1CCOCC1)N/N=C/c1ccccc1O |  | inconclusive: 20.6 µM [cytotoxic, single point]
72 | Cc1ccccc1OCc1occc1C(=O)Nc1cccc(-n2cnnn2)c1 |  | inconclusive: 25.9 µM [cytotoxic, partial curve, poor fit]
73 | CCOC(=O)C1CCCN(C(=O)C2CCN(S(=O)(=O)c3cccs3)CC2)C1 (stereo unspecified) | inactive: 17.2% | 
74 | Cc1ccc2nc3ccc(N4CCCC4)nn3c(=O)c2c1 |  | inconclusive: 5.8 µM [cytotoxic, partial curve]
75 | O=C(Nc1ccc(-c2cn3ccccc3n2)cc1)c1ccco1 |  | active: 10.3 µM
76 | OC(CN1C2=NCCN2c2ccccc21)c1ccccc1 (stereo unspecified) |  | inconclusive: 25.9 µM [cytotoxic, partial curve, poor fit]

Part of the list above, set out differently.
Row	Compound	activity change, negative = cytotoxicity	Potency
64	CCN(CC)C(=O)Cn1c(SCC(=O)Nc2ccc(F)cc2)nc2ccccc21	inactive: 0%	
65	COc1ccc(CCNC(=O)c2ccccc2SC)cc1		inconclusive: 29.1 µM [cytotoxic, single point]
66	CCn1c(/C=N/NC(=O)c2ccc(OC)cc2)nc2ccccc21		inconclusive: 2.06 µM [cytotoxic, full curve]
